# Experimental data published in the supplement of paper PMC4604168 (melanoma cell lines).
# The list shows a part of the results. Repeats are few or missing, and single values can be far off.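 The apoptosis fraction was the count of cleaved-PARP antibody-stained nuclei relative to all DNA-stained nuclei, imaged in 1,536-well plates. Screening doses were set so most cells survived, and baseline and induced cleaved-PARP levels vary greatly across cell lines.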
# System: WM3526
# Assay: cleaved PARP positive nuclei fraction relative to DMSO control; melanoma cells; higher = more apoptosis
# Settings: library dose: low library concentration; 72 h
row,Structure (SMILES),cleaved PARP positive nuclei fraction
1,"NC(=O)c1ccc(N(C(N)=O)c2c(F)cccc2F)nc1-c1ccc(F)cc1F + C#Cc1cccc(Nc2ncnc3cc(OCCOC)c(OCCOC)cc23)c1 [erlotinib] (first compound 0.4 µM, partner dose 0.8 µM)",84.4%
2,"CS(=O)(=O)c1ccc(C(=O)Nc2ccc(Cl)c(-c3ccccn3)c2)c(Cl)c1 [vismodegib] + Nc1nc(F)nc2c1ncn2[C@@H]1O[C@H](CO)[C@@H](O)[C@@H]1O [fludarabine] (first compound 1 µM, partner dose 0.2 µM)",647%
3,"NC(=O)c1ccc(N(C(N)=O)c2c(F)cccc2F)nc1-c1ccc(F)cc1F + C=CCNC1=C2C[C@@H](C)C[C@H](OC)[C@H](O)[C@@H](C)/C=C(\C)[C@H](OC(N)=O)[C@@H](OC)/C=C\C=C(/C)C(=O)NC(=CC1=O)C2=O [Tanespimycin] (first compound 0.4 µM, partner dose 0.002 µM)",43.1%
4,"CC(=O)O[C@@]12CO[C@@H]1C[C@H](O)[C@@]1(C)C(=O)[C@H](O)C3=C(C)[C@@H](OC(=O)[C@H](O)[C@@H](NC(=O)OC(C)(C)C)c4ccccc4)C[C@@](O)([C@@H](OC(=O)c4ccccc4)[C@H]21)C3(C)C [Docetaxel] + C=C(c1ccc(C(=O)O)cc1)c1cc2c(cc1C)C(C)(C)CCC2(C)C [Bexarotene] (first compound 0.0001 µM, partner dose 2 µM)",222%
5,"CC(=O)O[C@@]12CO[C@@H]1C[C@H](O)[C@@]1(C)C(=O)[C@H](O)C3=C(C)[C@@H](OC(=O)[C@H](O)[C@@H](NC(=O)OC(C)(C)C)c4ccccc4)C[C@@](O)([C@@H](OC(=O)c4ccccc4)[C@H]21)C3(C)C [Docetaxel] + C[C@]1(c2nc3c(C(N)=O)cccc3[nH]2)CCCN1 [Veliparib] (first compound 0.0001 µM, partner dose 1.4 µM)",300%
6,"CCN(CC)CCNC(=O)c1c(C)[nH]c(/C=C2\C(=O)Nc3ccc(F)cc32)c1C [sunitinib] + OCc1c[nH]c2ccccc12 [Indole-3-carbinol] (first compound 0.4 µM, partner dose 0.8 µM)",314%
7,"C[C@]1(O)C[C@@H](c2nc(-c3ccc4ccc(-c5ccccc5)nc4c3)c3c(N)nccn32)C1 + CCCS(=O)(=O)Nc1ccc(F)c(C(=O)c2c[nH]c3ncc(Cl)cc23)c1F [PLX4720] (first compound 0.4 µM, partner dose 0.08 µM)",129%
8,"Cn1cnc2c(F)c(Nc3ccc(Br)cc3Cl)c(C(=O)NOCCO)cc21 [selumetinib] + C#Cc1cccc(Nc2ncnc3cc(OCCOC)c(OCCOC)cc23)c1 [erlotinib] (first compound 0.015 µM, partner dose 0.8 µM)",59.8%
9,"Cn1sc(=O)n(Cc2ccccc2)c1=O + OCc1c[nH]c2ccccc12 [Indole-3-carbinol] (first compound 0.4 µM, partner dose 0.8 µM)",195%
10,"Cn1cnc2c(F)c(Nc3ccc(Br)cc3Cl)c(C(=O)NOCCO)cc21 [selumetinib] + C[C@@H](Oc1cc(-c2cnn(C3CCNCC3)c2)cnc1N)c1c(Cl)ccc(F)c1Cl [Crizotinib] (first compound 0.015 µM, partner dose 0.2 µM)",97.2%
11,"NC(=O)c1ccc(N(C(N)=O)c2c(F)cccc2F)nc1-c1ccc(F)cc1F + Clc1ccc(Nc2nnc(Cc3ccncc3)c3ccccc23)cc1 [vatalanib] (first compound 0.4 µM, partner dose 2 µM)",22.1%
12,"Cn1sc(=O)n(Cc2ccccc2)c1=O + Clc1ccc(Nc2nnc(Cc3ccncc3)c3ccccc23)cc1 [vatalanib] (first compound 0.4 µM, partner dose 2 µM)",186%
13,"COc1ccc(C2=N[C@@H](c3ccc(Cl)cc3)[C@@H](c3ccc(Cl)cc3)N2C(=O)N2CCNC(=O)C2)c(OC(C)C)c1 [Nutlin-3] + CC(=O)c1c(C)c2cnc(Nc3ccc(N4CCNCC4)cn3)nc2n(C2CCCC2)c1=O [palbociclib] (first compound 0.1 µM, partner dose 0.04 µM)",151%
14,"COc1ccc(C2=N[C@@H](c3ccc(Cl)cc3)[C@@H](c3ccc(Cl)cc3)N2C(=O)N2CCNC(=O)C2)c(OC(C)C)c1 [Nutlin-3] + Cn1c(=O)n(-c2ccc(C(C)(C)C#N)cc2)c2c3cc(-c4cnc5ccccc5c4)ccc3ncc21 [NVP-BEZ235] (first compound 0.1 µM, partner dose 0.004 µM)",80%
